The list does not hold the whole screen: it gathers tests that were run many times, whatever their T/C, doses with no T/C, and many T/C values between a quarter and a half above the control. Other doses and runs of a compound stand elsewhere. T/C gives the treated animals as a percentage of the vehicle group. Some entries give survivors of the animals treated and no T/C: the source holds a T/C of zero for them, seemingly a mark for toxic or unscored doses. Some survivor counts are full or nearly so, which does not show that the dose was tolerated: the source hardly ever lists a survival T/C far under the control, and the zero likely stands for such cases as well. Counts of survivors are from the toxicity check (mostly the fifth day) where no day follows; animals may have died later. Schedule codes are those of the source, read here as Q, the interval in days (D) or hours (H), X, the number of doses. Some entries hold several experiments; the values are given in rising order. Where survival is the endpoint, this PubChem deposit counts one and a half times the control or more as active, and values a quarter to a half above the control carry no call in these data; other NCI protocols may use other cut-offs. Some T/C values carry the count of animals alive at the toxicity check (mostly the fifth day); where none is given, no animal had died by that day.
System: P388 leukemia ip, CD2F1 mice, survival T/C
Test: NCI In Vivo Anticancer Drug Screen. Data for tumor model P388 Leukemia (intraperitoneal) in CD2F1 (CDF1) mice
Conditions: T/C endpoint: median survival time, higher T/C = longer survival
[1] = dose: 50.0 mg/kg/injection, schedule: Q01DX009 (ip), vehicle: saline with Tween-80
[2] = dose: 200.0 mg/kg/injection, schedule: Q01DX009 (ip), vehicle: saline with Tween-80
[3] = dose: 200.0 mg/kg/injection, schedule: Q01DX005 (ip), vehicle: saline with Tween-80

For `CCOC(=O)/C=C(\Cl)C(=O)OCC`, the survivor count (dose: 12.5 mg/kg/injection, schedule: Q01DX009 (ip), vehicle: saline with Tween-80) was 6 of 6, the survivor count [1] was 0 of 6 and the survivor count (dose: 100.0 mg/kg/injection, schedule: Q01DX009 (ip), vehicle: saline with Tween-80) was 0 of 6. The survivor count [2] was 0 of 6.

In the case of `NNS(=O)(=O)c1ccc2ccccc2c1`, the T/C (dose: 50.0 mg/kg/injection, schedule: Q01DX009 (ip), vehicle: other) is reported as 126 % of control and the survivor count (dose: 400.0 mg/kg/injection, schedule: Q01DX009 (ip), vehicle: other) is reported as 0 of 3.

With `CCOC(=O)C(=O)N(CCCNc1c2ccccc2nc2c(OC)cccc12)CCCNc1c2ccccc2nc2c(OC)cccc12` the T/C (dose: 5.0 mg/kg/injection, schedule: Q01DX009 (ip), vehicle: water) was 139 % of control and the survivor count (dose: 20.0 mg/kg/injection, schedule: Q01DX009 (ip), vehicle: water) was 4 of 6.

`CN1COC(OC2OCN(C)CC2(C)C)C(C)(C)C1` (centres undefined) was tested, and the T/C [1] was 139 % of control and the T/C [2] was 148 % of control.

`CN(C)CCCN1C(=O)C2CCC(C)(C1=O)C2(C)C` (centres undefined) was tested, and the survivor count [3] was 0 of 6.

In the case of `O=C(Nc1ccc(Cl)c(Cl)c1)OCc1ccco1`, the survivor count (dose: 240.0 mg/kg/injection, schedule: Q01DX005 (ip), vehicle: Klucel (hydroxypropylcellulose) (HPC)) is reported as 6 of 6.

`CCCCCCNP1(NCCCCCC)=NP(NCCCCCC)(NCCCCCC)=NP(NCCCCCC)(NCCCCCC)=NP(NCCCCCC)(NCCCCCC)=N1` was tested, and the survivor count (dose: 150.0 mg/kg/injection, schedule: Q01DX005 (ip), vehicle: Klucel (hydroxypropylcellulose) (HPC)) was 4 of 4.

`CCCN(CCC)CCN1C(=O)NC(C)(c2ccccc2)C1=O` (centres undefined) was tested, and the survivor count (dose: 120.0 mg/kg/injection, schedule: Q01DX005 (ip), vehicle: saline with Tween-80) was 0 of 6 and the survivor count (dose: 240.0 mg/kg/injection, schedule: Q01DX005 (ip), vehicle: saline with Tween-80) was 0 of 6.

For `N#Cc1ccc(NC(=O)Nc2nncs2)cc1`, the T/C (dose: 50.0 mg/kg/injection, schedule: Q01DX009 (ip), vehicle: distilled water + Tween-80) was 130 and 131 % of control, the T/C (dose: 100.0 mg/kg/injection, schedule: Q01DX009 (ip), vehicle: distilled water + Tween-80) was 130 and 140 % of control and the T/C (dose: 200.0 mg/kg/injection, schedule: Q01DX009 (ip), vehicle: distilled water + Tween-80) was 146 % of control [4 of 6 alive]. For the same compound, the survivor count (dose: 400.0 mg/kg/injection, schedule: Q01DX009 (ip), vehicle: distilled water + Tween-80) was 0 of 6 and 3 of 6.

With `CC(C)N=C(Nc1ccccc1)c1ccccc1` the survivor count [1] was 6 of 6, the survivor count (dose: 100.0 mg/kg/injection, schedule: Q01DX009 (ip), vehicle: saline + Tween-80 + alcohol) was 0 of 6 and the survivor count (dose: 200.0 mg/kg/injection, schedule: Q01DX009 (ip), vehicle: saline + Tween-80 + alcohol) was 0 of 6.

With `CCN(CC)Cc1c(C)nc2ccc(N(C)C)cc2c1Cl` the survivor count (dose: 100.0 mg/kg/injection, schedule: Q01DX009 (ip), vehicle: Klucel (hydroxypropylcellulose) (HPC)) was 1 of 6 and the survivor count (dose: 200.0 mg/kg/injection, schedule: Q01DX009 (ip), vehicle: Klucel (hydroxypropylcellulose) (HPC)) was 0 of 6.

`O=P(OCc1ccccc1)(N(CCCl)CCCl)N1CCN(P(=O)(OCc2ccccc2)N(CCCl)CCCl)CC1` (centres undefined) was tested, and the T/C [1] was 141 % of control, the survivor count [2] was 1 of 6 and the T/C (dose: 200.0 mg/kg/injection, schedule: Q04DX003 (ip), vehicle: saline with Tween-80) was 145 % of control. For the same compound, the survivor count (dose: 400.0 mg/kg/injection, schedule: Q04DX003 (ip), vehicle: saline with Tween-80) was 6 of 6.

In the case of `C=CS(=O)(=O)c1ccc(Nc2cc(S(=O)(=O)O)c(N)c3c2C(=O)c2ccccc2C3=O)cc1`, the T/C [2] is reported as 132 % of control.

With `COc1ccc(N=C2C(=Nc3ccc(OC)cc3)N(S(=O)(=O)c3ccc(C)cc3)C(=S)N2c2ccccc2)cc1` the survivor count (dose: 200.0 mg/kg/injection, schedule: Q01DX005 (ip), vehicle: Klucel + Tween-80) was 6 of 6.

`CS(C)=Nc1ccc(Cl)cc1` was tested, and the survivor count (dose: 200.0 mg/kg/injection, schedule: Q01DX001 (ip), vehicle: saline) was 3 of 6 and the survivor count (dose: 400.0 mg/kg/injection, schedule: Q01DX001 (ip), vehicle: saline) was 0 of 6.

For `CS(=O)(=O)Nc1ccc(NC(=O)c2c3ccccc3nc3ccccc23)cc1`, the survivor count (dose: 100.0 mg/kg/injection, schedule: Q01DX005 (ip), vehicle: saline with Tween-80) was 1 of 6 and the survivor count [3] was 0 of 6.
